Values of other authors in patent US20220378704A1, “PROCESS FOR THE PREPARATION OF A NANOPARTICULATE ACTIVE INGREDIENT” (Bayer Aktiengesellschaft, priority 2019, published 2022).
Some entries share one result that the patent states for a list of compounds. For at least one compound, name, drawing or mass did not settle the structure. Some ranges recur; such a range may be that of the whole group of compounds.

Conditions: precipitated from acetone, DMSO, THF, EtOH solutions; range stated jointly for all APIs

SMILES | particle size range
CCCCCCCCCCCCCCCC(=O)OC[C@H](O)[C@H]1OC(=O)C(O)=C1O [ascorbyl palmitate] | 0.1-30 μm
CCC(C)n1ncn(-c2ccc(N3CCN(c4ccc(OCC5COC(Cn6cncn6)(c6ccc(Cl)cc6Cl)O5)cc4)CC3)cc2)c1=O (stereo not shown) [itraconazole] | 0.1-30 μm
COC1=CC(=O)C[C@@H](C)[C@]12Oc1c(Cl)c(OC)cc(OC)c1C2=O [griseofulvin] | 0.1-30 μm
CC(C)OC(=O)C(C)(C)Oc1ccc(C(=O)c2ccc(Cl)cc2)cc1 [fenofibrate] | 0.1-30 μm
